Assay results: PubChem BioAssay AID1259415 (National Center for Advancing Translational Sciences (NCATS), 2018)
In all, about 410,000 compounds went through this assay and about 18,000 (4.4%) were called active. The shares of active, inactive and inconclusive entries below differ from those in the screen. Cut-off read from the data, not from the text of the source: active = activity change below about -60%; inconclusive = no clear call, values can overlap the other calls; inactive = above about -39%.

Experiment: qHTS Assay for inhibitors of the human cytomegalovirus (HCMV)
Conditions: HFF cells, HCMV-luciferase reporter, 72 h; at 57.5 µM; active compounds read low
Procedure, shortened: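 Two compound doses tested in HFFs infected with HCMV-luciferase, MOI 1 PFU/cell, 72 h at 37C. Lysate luminescence read with OneGlo; data normalized against buffer-only and 10uM Salinomycin inhibitor controls.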
% is set by controls: 0 for no effect and ±100 for the full control effect.

Structure (SMILES)	activity change, negative = inhibition
CSc1ncccc1C(=O)OCc1ccc([N+](=O)[O-])cc1	inconclusive: -48.9%
COc1ccc(NC(=O)Nc2cccc3ccccc23)cc1OC	inconclusive: -53%
CC[N+](C)(C)CCN(Cc1ccc(Cl)cc1)c1ccccn1	inconclusive: -45.2%
CCOC(CNCc1cc(C)c2[nH]c3ccccc3c2c1C)OCC	inconclusive: -54.4%
CCOC(=O)c1ccccc1NC(=O)CN(c1ccccc1)S(=O)(=O)c1ccc(OCC)cc1	inconclusive: -51.3%
O=c1c(O)c(-c2ccccc2)oc2ccccc12	inconclusive: -57.4%
CCN(CCn1cccn1)Cc1cn[nH]c1-c1ccc(OC)cc1F	inconclusive: -46.3%
COc1ccc(-c2c([C@H]3[C@H]4C=CC[C@@H](C)[C@@H]4C(=O)N3Cc3ccccc3)ccc3ccccc23)cc1	inconclusive: -53%
Cc1cc(C)nc(NN=C(c2ccccc2)c2ccccc2)n1	inconclusive: -53.1%
O=C(CCl)N1CCN(S(=O)(=O)c2ccc3c(c2)OCCCO3)CC1	inconclusive: -43.2%
CCOC(=O)C1CCCN(c2c(NCCN(CC)c3ccccc3)c(=O)c2=O)C1 (configuration not stated)	inactive: 17.9%
CCCCCn1c(N)c(-c2nc3ccccc3o2)c2c([N+](=O)[O-])nn(CC)c(=O)c21	inconclusive: -55.3%
COc1c(Cl)cc(-c2noc(C)c2C(=O)NCc2ccccc2)cc1Cl	active: -68.3%
CCOc1cc(CNCCc2ccc(S(N)(=O)=O)cc2)ccc1OCc1ccccc1	inconclusive: -40.3%
COc1ccc(OS(=O)(=O)Cc2ccccc2)cc1	inconclusive: -59.4%
Cc1ccc(C)c(-n2c(-c3cccnc3)n[nH]c2=S)c1	inconclusive: -46.5%
O=S(=O)(Cc1cnc(Cl)s1)c1ccccc1	inactive: -14.7%
O=C(Nc1cccc(C(F)(F)F)c1)OCc1ccncc1	inconclusive: -42.5%
Cc1c(Cl)cccc1NC(=S)NCc1ccc2c(c1)OCO2	inconclusive: -55.9%
COc1cc(OC)cc(C(=O)N[C@H](C(=O)Nc2nc(-c3ccc(OC)c(OC)c3)cs2)C(C)C)c1	inactive: -19.7%
O=C(Cn1nc(Cc2cccnc2)c2ccccc2c1=O)N1CCN(c2ccccc2F)CC1	inconclusive: -51.2%
Cc1ccc(Sc2ccc(C(=O)N3CCOCC3)cc2[N+](=O)[O-])cc1	active: -74.9%

Structure (SMILES)	activity change, negative = inhibition
COc1ccc(C2/C=C\CN(C(=O)Oc3ccccc3)CC(=O)N2Cc2ccc(F)cc2)cc1 (configuration not stated)	inconclusive: -41.8%
O=C(C[n+]1ccc(-c2ccccc2)cc1)Nc1ccc([N+](=O)[O-])cc1	inconclusive: -45.2%
Cc1cccc(NC(=O)c2nc[nH]c2C(=O)Nc2cccc(C)c2)c1	inconclusive: -49.6%
Cn1nc(C2CC2)cc1NC(=O)C1(C)CCN1C(=O)CC(c1ccccc1)c1ccccc1 (configuration not stated)	inconclusive: -48.2%
O=C(NCc1ccc(Cl)cc1)C1CCN(S(=O)(=O)N2CCOCC2)CC1	inconclusive: -40%
C#Cc1ccc(C(=O)Nc2ccc(N3CCC(C)CC3)c(C(N)=O)c2)cc1	inconclusive: -43.4%
O=C(/C=C/c1ccc(O)cc1)c1ccc(NC2=C(N3CCCCC3)C(=O)c3ccccc3C2=O)cc1	active: -98.7%
O=S(=O)(c1ccccc1OC(F)(F)F)N1CCN(c2ccnc3cc(Cl)ccc23)CC1	inactive: -34.6%
COc1cc(/C=N/n2cnn(Cc3ccccc3Cl)c2=S)cc(OC)c1OC	inconclusive: -57.2%
CCOC(=O)C(C)CC(C)C(=O)N1CCOCCN(C(=O)C(C)CC(C)C(=O)OCC)CCOCC1 (configuration not stated)	inactive: -0.471%
CCN(CC)CCOCCn1c(C)ccc1C	inconclusive: -56%
CN(c1ccc(C(=O)N2CCN(Cc3ccccc3)CC2)cc1)S(=O)(=O)c1ccc(Cl)cc1	active: -62.7%
O=C(Nc1cccc(S(=O)(=O)NC2=NCCC2)c1)c1ccc(C(F)(F)F)cc1	active: -60.2%
CC1(C)CC2CC(C)(CN2C(=S)Nc2ccccc2)C1 (configuration not stated)	active: -61.2%
COc1ccc(C(O)(CCC(C)C)C(CN2CCOCC2)c2ccccc2)cc1 (configuration not stated)	inconclusive: -46.5%
COc1ccc(Cn2c(O)c(C=Nc3ccccc3)c3ccccc3c2=O)cc1	active: -63.3%
Cc1ccc(NS(=O)(=O)c2ccc(CCC(=O)N3CCCC3)cc2)cc1	inconclusive: -42%
CC(C)(C)N1CC(C(=O)Nc2ccc(S(=O)(=O)N3CCCCC3)cc2)CC1=O (configuration not stated)	inconclusive: -48.1%
COc1cccc2sc(N(CCCN(C)C)C(=O)c3ccc(S(=O)(=O)N4CCc5ccccc5C4)cc3)nc12	inconclusive: -49.1%
CCCCCC(C(=O)O)C(C)CC(=O)NC1CCCCC1 (configuration not stated)	inactive: 46.9%
Cc1cc(C)cc(OCC(=O)O/N=C(\N)c2ccccc2Cl)c1	inactive: -11.1%
Cc1cc2nc(CO)[nH]c2cc1C	inactive: -26.5%

Rewritten as labelled records: 2 of the compounds above
COc1cc(/C=N/n2cnn(Cc3ccccc3Cl)c2=S)cc(OC)c1OC
  activity change, negative = inhibition: inconclusive: -57.2%
CC1(C)CC2CC(C)(CN2C(=S)Nc2ccccc2)C1 (configuration not stated)
  activity change, negative = inhibition: active: -61.2%

Later entries.

Structure (SMILES)	activity change, negative = inhibition
CC(C)(C)NC(=O)CN(Cc1cccs1)C(=O)CCC(=O)Nc1nccs1	inconclusive: -43.4%
COc1ccc(C(=O)NC2CCN(Cc3c(F)cccc3Cl)CC2)cc1OC	inactive: 13.1%
CCOC(=O)c1c(C)n(C)c2ccc(OC(C)=O)cc12	inactive: 5.35%
CCCc1c(C(=O)NNc2cccc(Cl)c2)cnn1-c1ccccc1	inconclusive: -44.3%
CCn1nc(C)cc1C(=O)OCC(=O)c1ccc(Cl)cc1	inactive: 15.6%
CC(NC(=O)CCCC1CCCCC1)c1ccc(S(N)(=O)=O)cc1 (configuration not stated)	inconclusive: -51.6%
CC(C)(C)c1cc(NC(=O)COC(=O)c2nccnc2N)n(-c2ccccc2)n1	inconclusive: -43.7%
CCOC(=O)C(CC)/C(C)=N\NC(=O)CCC(=O)Nc1ccc(Cl)cc1Cl (configuration not stated)	inconclusive: -45.8%
Cc1c(-c2ccc(Cl)cc2)c(=O)oc2ccc(OC(=O)N3CCOCC3)cc12	inconclusive: -54.1%
O=C1C=CC(=O)N1Cc1ccccc1	inactive: -12.2%
CCCCOc1cccc(C(=O)N(Cc2cccs2)c2ccc(OC)cc2)c1	active: -60.3%
Cc1ccccc1N=C(NOCc1ccccc1)c1nonc1N	inactive: -8.04%
CCc1ccc(S(=O)(=O)N(C(=O)Oc2ccccc2)c2ccc3oc(C)c(C(=O)OC)c3c2)cc1	active: -70.9%
COc1ccc(C2C(C(=O)NCc3ccco3)c3ccccc3C(=O)N2C)cc1 (configuration not stated)	inactive: -1.42%
CC(Sc1nc(N)c2c3c(sc2n1)CSC(C)(C)C3)C(=O)Nc1ccccc1 (configuration not stated)	inconclusive: -50.5%
Cc1nnc2n1NC(c1ccc(Cl)cc1)C(C(=O)N1CCC(C)CC1)S2 (configuration not stated)	inconclusive: -42.8%
Cc1nn2c(NCCN(C)C)c3c(nc2c1-c1ccccc1)CCCC3	inconclusive: -44.9%
CCN(CC)CCNC(=O)Nc1ccc2c(c1)N(Cc1ccccc1)C(=O)c1ccccc1S2	active: -60.8%
Cc1ccc(S(=O)(=O)NCCC2=CCCCC2)cc1C(N)=O	active: -74.9%
Cc1cc(-c2nc(C)c(-c3nnc(SCC(=O)Nc4ccccc4)n3C)s2)no1	inconclusive: -45.2%
CCN(CCCNC(=O)c1cc2c(Cl)nc3ccccc3c2s1)Cc1ccccc1	inconclusive: -55.2%
C=CCNC(=O)c1n[nH]c2c1CC(C(C)(C)CC)CC2 (configuration not stated)	inactive: -36%

Structure (SMILES)	activity change, negative = inhibition
CCOc1ccc(CCNC(=O)c2ccc(-n3c(C)cc4c3CCC(C)C4)cc2)cc1OCC (configuration not stated)	inconclusive: -52.2%
CCN(CC)c1sc(S(=O)(=O)c2ccccc2)nc1S(=O)(=O)c1ccc(C)cc1	active: -73.3%
CC(=O)N1c2ccc(S(=O)(=O)NCCC(=O)Nc3ccc(Br)c(C)c3)cc2CC1C (configuration not stated)	inconclusive: -42.7%
COc1ccc(C(=O)NC2CCN(CC(=O)NC3CCCCC3)CC2)cc1	inactive: -8.11%
COCCCNc1ccn2nc(-c3ccc(OCc4ccccc4)cc3)cc2n1	inconclusive: -58.4%
CCC(=O)Nc1ccc(Cl)c(NC(=O)c2ccccc2OC)c1	active: -61.7%
Cc1ccc(F)c(Oc2cc(NN3CCCCC3)c([N+](=O)[O-])cc2[N+](=O)[O-])c1	inactive: -14.9%
NS(=O)(=O)c1ccc(N/N=C/c2ccc[nH]2)c([N+](=O)[O-])c1	inconclusive: -45.8%
CCCN(CCC)CCCNC(=O)c1cn(C)c2ccc(S(=O)(=O)N(C)C3CCCCC3)cc2c1=O	inconclusive: -40.7%
CCCN1CCN(c2ccc([N+](=O)[O-])cc2C#N)CC1	inconclusive: -44.6%
COc1ccc(OC)c(COC(=O)c2cc([N+](=O)[O-])ccc2N2CCOCC2)c1	inactive: -9.28%
COc1ccc(C(=O)Nn2c(SCC(=O)c3ccccc3)nc3ccccc3c2=O)cc1	inconclusive: -59.7%
C=CCn1c(O)c(C=NCCN(C)C)c(=O)[nH]c1=O	inactive: 62.9%
O=C(NCCc1ccccc1F)c1ccc2c(c1)OCCO2	active: -98.6%
O=C(NCCc1nc(-c2ccccc2Cl)no1)c1ccccc1	inconclusive: -54.4%
Cc1ccc2occ(/C=N/NC(=O)c3ccc(Cl)cc3)c(=O)c2c1	active: -65.2%
CCOC(=O)C1(CCOc2ccccc2)CCN(Cc2nccn2CC)CC1	inactive: 13%
O=C(NN1C(=O)c2ccccc2C1=O)C1CC2CCC1C2 (configuration not stated)	inconclusive: -43.8%
CC(C)N1C(=O)c2ccccc2N(Cc2ccccc2)S1(=O)=O	active: -61.6%
CC(=O)Oc1ccc(C23c4ccccc4C2(OC(C)=O)c2cc(OC(C)=O)ccc23)cc1 (configuration not stated)	active: -70%
CC(=O)c1cc(CN2CCC(N3CCC(C(=O)N4CCCC4)CC3)CC2)cs1	inconclusive: -41%
